Measured values published in US4659804A, “(Bis-1,7-S-acetamidomethyl-L-cysteine)salmon calcitonin” (Armour Pharmaceutical Company, priority 1984, dated 1987).
At least one peptide structure holds a part that was inferred or is arguable (an end, a ring closure or a residue).

Test system: serum calcium concentration
Experiment: Biological assay of calcitonin analogs in vivo: reduction of serum calcium concentration, 2×2 parallel line assay
Conditions: rats, subcutaneous injection, blood withdrawn 1 hour later
Experimental: The biological potency of [1,7-Di-Cys(Acm)]salmon calcitonin was determined by comparing the reduction of serum calcium concentration which followed administration by graded doses of [1,7-Di-Cys(Acm)]SCT and synthetic salmon calcitonin standard. Rats were divided into four groups of seven animals, and each group was assigned at random to a dose of standard or test solution. Low and high doses were chosen from the linear portion of the dose-response curve. For the salmon calcitonin standard, the values were 0.7 and 2.1 mcg. peptide/100 g. body weight (BW). This dose approximates 3 and 9 MU/100 g. BW. Peptides were given by subcutaneous injection (0.2 ml/100 g. BW) and blood was withdrawn 1 hour later for serum calcium determination. Sera are processed and analyzed within two hours of collection. […]. Results were analyzed by a 2×2 parallel line assay [Gaddum, J. H., J. Pharm. Pharmacol., 6, 345 (1953)]. The standard salmon calcitonin used was independently determined to contain greater than 4,000 IU/mg. [1,7-Di-Cys(Acm)]SCT assayed at 4250 IU/mg.

CC(=O)NCSC[C@H](NC(=O)[C@@H](NC(=O)[C@H](CO)NC(=O)[C@H](CC(C)C)NC(=O)[C@H](CC(N)=O)NC(=O)[C@H](CO)NC(=O)[C@@H](N)CSCNC(C)=O)[C@@H](C)O)C(=O)N[C@H](C(=O)N[C@@H](CC(C)C)C(=O)NCC(=O)N[C@@H](CCCCN)C(=O)N[C@@H](CC(C)C)C(=O)N[C@@H](CO)C(=O)N[C@@H](CCC(N)=O)C(=O)N[C@@H](CCC(=O)O)C(=O)N[C@@H](CC(C)C)C(=O)N[C@@H](Cc1c[nH]cn1)C(=O)N[C@@H](CCCCN)C(=O)N[C@@H](CC(C)C)C(=O)N[C@@H](CCC(N)=O)C(=O)N[C@H](C(=O)N[C@@H](Cc1ccc(O)cc1)C(=O)N1CCC[C@H]1C(=O)N[C@@H](CCCNC(=N)N)C(=O)N[C@H](C(=O)N[C@@H](CC(N)=O)C(=O)N[C@H](C(=O)NCC(=O)N[C@@H](CO)C(=O)NCC(=O)N[C@H](C(=O)N1CCC[C@H]1C(N)=O)[C@@H](C)O)[C@@H](C)O)[C@@H](C)O)[C@@H](C)O)C(C)C [[1,7-Di-Cys(Acm)]SCT, [1,7-Di-Cys(Acm)]salmon calcitonin]
biological potency (reduction of serum calcium concentration vs synthetic salmon calcitonin standard): 4250 IU/mg
